# Data taken from patent US20160009752A1, “[…]-OXIMINO-AMINOALKYLETHERS AND PROCESS FOR PREPARATION THEREOF, USEFUL AS ANTIDIABETIC AND […] AGENTS” (COUNCIL OF SCIENTIFIC & INDUSTRIAL RESEARCH, priority 2013, published 2016).
# For at least one compound, name, drawing or mass did not settle the structure.
# System: L6 myotubes
# Assay: 2-3H-deoxyglucose uptake by skeletal muscle cells
# Assay type: cell-based, rat
# Conditions: 10 μM, 16 h
# Protocol: The fold increase in 2-deoxy-glucose uptake in the presence of test compound by rat skeletal muscle cells (L-6 myotubes) was considered as % antihyperglycemic activity of the test compound which was carried out as follows. L6 myotubes were incubated with increasing concentrations of 14b and the standard drug rosiglitazone (10 μM) for 16 h. After incubation glucose uptake was assessed for 5 min in HEPES-buffered saline [140 mM NaCl, 20 mM HEPES, 5 mM KCl, 2.5 mM MgSO4, 1 mM CaCl2 (pH 7.4)] containing 10 μM 2-deoxyglucose (0.5 μCi/ml 2-[^3H]-deoxyglucose) at room temperature. Subsequently cells were rinsed with an ice-cold solution containing 0.9% NaCl and 20 mM D-glucose. To quantify the radioactivity incorporated, cells were lysed with 0.05 N NaOH and lysates were counted with scintillation fluid in a β-counter. Nonspecific uptake was determined in the presence of cytochalasin B (50 μM) during the assay, and these values were subtracted from all other values. Glucose uptake was measured in triplicate and normalized to total protein, was expressed as fold increase with respect to control cells.
compound,measurement,value
"CN(CCOc1ccc(CC2SC(=O)NC2=O)cc1)c1ccccn1 (stereo not shown) [Rosiglitazone, reference compound]","2-deoxyglucose uptake, fold vs. control",1.74±0.19 fold
